Reference: paper PMC3254653
Numbering of substitutions follows the chain as printed. No constants are given. Whether binding was seen depends on the method and setting. In cells and extracts the contact can be indirect. Some entries that bind do so weakly or less than the wild type. Sequences can lack the tags named with a protein.

Legend:
[1] = molecular target: T1, Myc-tagged wild type Smoothened (Myc-Smo) (Drosophila) (UniProt P91682); test: co-IP; S2 cells transfected with Krz-YFP and Myc-tagged wild type Smo or Smo variants, treated with or without Hh-conditioned medium; Myc-Smo as bait, Western blot of lysates and immunoprecipitates
T1 sequence: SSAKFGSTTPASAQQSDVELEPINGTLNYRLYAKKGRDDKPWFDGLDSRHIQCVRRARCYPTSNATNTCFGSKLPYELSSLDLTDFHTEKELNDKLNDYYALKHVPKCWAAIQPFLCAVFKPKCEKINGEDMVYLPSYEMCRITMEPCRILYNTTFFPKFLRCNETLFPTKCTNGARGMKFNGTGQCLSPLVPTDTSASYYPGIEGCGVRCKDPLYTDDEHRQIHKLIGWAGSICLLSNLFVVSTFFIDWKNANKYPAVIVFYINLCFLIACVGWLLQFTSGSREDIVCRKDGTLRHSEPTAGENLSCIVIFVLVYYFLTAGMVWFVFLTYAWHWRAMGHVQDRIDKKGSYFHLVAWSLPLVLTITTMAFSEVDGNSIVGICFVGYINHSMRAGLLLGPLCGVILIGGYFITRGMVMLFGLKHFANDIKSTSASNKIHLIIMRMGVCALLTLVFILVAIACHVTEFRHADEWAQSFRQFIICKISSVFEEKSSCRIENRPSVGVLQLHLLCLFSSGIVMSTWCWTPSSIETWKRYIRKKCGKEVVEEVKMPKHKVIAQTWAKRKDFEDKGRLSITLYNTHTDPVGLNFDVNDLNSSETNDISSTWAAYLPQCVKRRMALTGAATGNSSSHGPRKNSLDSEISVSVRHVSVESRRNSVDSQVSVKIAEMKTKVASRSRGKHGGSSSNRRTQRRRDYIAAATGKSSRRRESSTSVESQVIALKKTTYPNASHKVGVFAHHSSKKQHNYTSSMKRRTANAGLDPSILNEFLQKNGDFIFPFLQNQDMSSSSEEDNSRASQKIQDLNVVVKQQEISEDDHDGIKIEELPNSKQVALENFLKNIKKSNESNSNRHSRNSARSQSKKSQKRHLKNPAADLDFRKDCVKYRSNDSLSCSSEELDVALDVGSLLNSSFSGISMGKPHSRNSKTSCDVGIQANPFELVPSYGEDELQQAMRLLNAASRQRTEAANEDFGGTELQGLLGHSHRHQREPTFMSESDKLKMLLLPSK

[2] = molecular target: T2, Myc-Smo^SA (phosphorylation deficient form of Smo with three PKA sites mutated to Ala) (Drosophila) (UniProt P91682); test: as above
T2 sequence: T1 sequence with S636A, S656A, S709A

B1: C-terminally YFP-tagged Kurtz (Krz-YFP) (protein, UniProt Q9V393 1-470)
chain: MNGGGGGSGGANVSNGSSTNVTAAGSTGGGSAGDETGGDASSRRQATRVFKKSSSNGKITVYLGKRDFVDHVTHVDPIDGVVFIDPEYVKDRKVFGQVLAAFRYGREDLDVLGLTFRKDLYLAHEQIYPPMQLDRPMTRLQERLIKKLGPNAHPFYFEVPPYCPASVSLQPAPGDVGKSCGVDYELKAFVGENVEDKPHKRNSVRLTIRKVMYAPSKVGEQPSIEVSKEFMMKPNKIHLEATLDKELYHHGEKISVNVHVANNSNRTVKKIKVCVRQFADICLFSTAQYKSVVAEIESEDGCQVAPGFTLSKVFELCPLLANNKDKWGLALDGQLKHEDTNLASSTLITNPAQRESLGIMVHYKVKVKLLISSPLLNGDLVAELPFTLMHPKPEEEEHPLLGERSPRASLAGGGLPLVSMSDGETESATGGQDVPTTTNLIQLDDDEAQDDDIIFEDFARLRLKGAETEA
Q: How did the binding [1] turn out when B1 was run?
A: The binding was “binds”.

Q: What about the binding [2] of the same binder?
A: The binding was “binds”.
